Data published in article PMC3958431.
No constants are given. Whether binding was seen depends on the method and setting. Some entries that bind do so weakly or less than the wild type.

Protein sequences, listed by entry. Tags and fused reporters are not part of them.
UniProt P63279: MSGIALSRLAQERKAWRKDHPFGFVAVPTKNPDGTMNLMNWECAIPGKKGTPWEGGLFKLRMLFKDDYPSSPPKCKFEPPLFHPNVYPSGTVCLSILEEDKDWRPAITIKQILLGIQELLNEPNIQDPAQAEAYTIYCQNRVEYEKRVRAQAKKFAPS

Target: Ubc9, SUMO conjugating enzyme, in the yeast two-hybrid assay (UniProt P63279)
Assay: two-hybrid; yeast two-hybrid assay; unpublished data, no details given

binding: binds
B1: ENS-1 in the yeast two-hybrid assay (protein, UniProt Q98TV2 1-490)
chain: MSNSMASMKSEDVLFDLLEKHGARPSVSGVDWARQNWYNLQSVSDRIRVLQNEARTRAGKGKSFICAVLGAALKAAVEFREEKNSTETQTIQALQESVKVTQELVKSLQSQIRSLEDQLEREKHNSVLLQTAFKELITCKDTGDTVIHSAPQEKVYPQGKLQEVKERLDKLEASPAHIRPLIKTEYTFDNSENLDPQMNVKEIPFSATELAKLKKDFSRSPKESETEYVWRVSLTGGDQILLTEKEAEGYWGPGVFLTTGNNRAPWSLTQRAAYWAGGLNPLERGDPLAITGTIDQLVENVQKAACLQMMYDRKLQPHNESPMMLPVNPERLTPLIRGLPESLKPIGIQLQGKIQAMSQGERTWAALEGSVAPNHQSGPKVWTWGEVAQELINYGRKYGPVVSTCSKFEPRGVRLAVASLASRPPSPRLIGTKKVSSPVKTGTRCIDHKRNGLWTLGWTKGIPRDLMNGLPTVRLEKLVNCWPEQKLKGS
